Results as given in PMC7901769.
These are yes or no findings as the source states them, for the method shown. Some entries that bind do so weakly or less than the wild type.

Assays:
[1] = molecular target: T1, human TMEM39A second cytoplasmic loop domain (337-420 a.a.) (human) (UniProt Q9NV64); experiment: two-hybrid; verification by co-transformation of bait (pGBKT7) and prey (pGADT7) vectors, yeast colony growth
T1 sequence: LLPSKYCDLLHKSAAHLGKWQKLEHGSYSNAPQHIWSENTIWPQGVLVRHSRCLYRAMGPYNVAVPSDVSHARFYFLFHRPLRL

[2] = molecular target: T1, human TMEM39A second cytoplasmic loop domain (337-420 a.a.) (human); experiment: two-hybrid; library screen: TMEM39A loop domains in pGBKT7 as bait against a normalized universal human cDNA library (Clontech), Matchmaker Gold Yeast Two-Hybrid System

B1: human Sec23A C-terminal domain (583-765 a.a.) (domain or fragment, UniProt Q15436 583-765)
chain: HLRRSSFLQVFNNSPDESSYYRHHFMRQDLTQSLIMIQPILYAYSFSGPPEPVLLDSSSILADRILLMDTFFQILIYHGETIAQWRKSGYQDMPEYENFRHLLQAPVDDAQEILHSRFPMPRYIDTEHGGSQARFLLSKVNPSQTHNNMYAWGQESGAPILTDDVSLQVFMDHLKKLAVSSAA
For B1, the binding [1] was “binds” and the binding [2] was “binds”.
